According to patent US7794995B2, “Purified PKB Ser 473 kinase and uses thereof” (priority 2002, dated 2010):
At least one structure is not confirmed: it was looked up by name or label, or the drawing left a doubt.

System: PKB Ser473 kinase
Assay: Ser473 kinase activity (FSY/FAY peptide assay) in subcellular fractions of treated serum-starved HEK293 cells
Format: cell-based, human
Conditions: 0.1 microM insulin, pervanadate 0.1 mM, 10 mins, LY294002 50 microM, 30 mins, versus basal
Protocol: HEK 293 cells transiently transfected with the PKB constructs were serum starved, stimulated or not with 0.1 mM pervanadate for 10 min at 37° C., and subcellular fractions were generated. Briefly, HEK 293 cells were washed once in ice-cold phosphate-buffered saline, and scraped in ice-cold fractionation buffer containing 20 mM HEPES-NaOH, pH 7.4, 250 mM sucrose, phosphatase inhibitors (10 mM sodium fluoride, 1 mM sodium pyrophosphate, 0.1 mM sodium orthovanadate, 2 μM microcystin LR [Alexis]), and protease inhibitors (1 mM PMSF and 1 mM benzamidine). After homogenization either by 10 passes through a 26-gauge needle, or by using a Kinematica homogenizer (10 strokes on speed 2 followed by 30 strokes on speed 10), subcellular fractions were prepared as previously described (Hill and Hemmings, 2002, Methods Enzymol 345: 448-463). The plasma membrane pellets were resuspended in 50 mM Tris-HCl (pH7.4) containing protease and phosphatase inhibitors as described above. Protein concentration of the subcellular fractions was determined by the Bradford method (Bio-Rad), using bovine serum albumin as standard. […]
Next, it was examined if membrane-associated Ser473 kinase activity was dependent on PI3-kinase signalling. […] PM fractions were assayed for Ser473 kinase activity, and also analyzed by immunoblotting for phospho-PKB and total PKB.

Structure (SMILES): O=c1cc(N2CCOCC2)oc2c(-c3ccccc3)cccc12 [LY294002]
- Ser473 kinase activity in plasma membrane fractions: attenuated the activity of the Ser473 kinase
